Paper PMC5599796, “Structural insights into transcription initiation by yeast RNA polymerase I” (The EMBO Journal, 2017)
Results are given in words; binding and its absence hold for the method and conditions named. Some entries that bind do so weakly or less than the wild type.

How the values were obtained:
Rrn7 [1] = molecular target: T1, Rrn7 (yeast, UniProt P40992 1-514); test: cross-linking; purified Pol I PIC (50 ug, 1 mg/ml) with H12/D12 DSS at 2 and 5 mM, 30 min at 37°C; LC-MS/MS, xQuest, LD score at least 23; both purified
T1 construct: Rrn7, TFIIB-like subunit of yeast Core Factor; Stood in the assay as a subunit of CF within the Pol I PIC; also called CF subunit Rrn7; TFIIB-related subunit Rrn7; source: E. coli BL21(DE3)Star pRARE, co-expressed as Core Factor, purified
T1 sequence: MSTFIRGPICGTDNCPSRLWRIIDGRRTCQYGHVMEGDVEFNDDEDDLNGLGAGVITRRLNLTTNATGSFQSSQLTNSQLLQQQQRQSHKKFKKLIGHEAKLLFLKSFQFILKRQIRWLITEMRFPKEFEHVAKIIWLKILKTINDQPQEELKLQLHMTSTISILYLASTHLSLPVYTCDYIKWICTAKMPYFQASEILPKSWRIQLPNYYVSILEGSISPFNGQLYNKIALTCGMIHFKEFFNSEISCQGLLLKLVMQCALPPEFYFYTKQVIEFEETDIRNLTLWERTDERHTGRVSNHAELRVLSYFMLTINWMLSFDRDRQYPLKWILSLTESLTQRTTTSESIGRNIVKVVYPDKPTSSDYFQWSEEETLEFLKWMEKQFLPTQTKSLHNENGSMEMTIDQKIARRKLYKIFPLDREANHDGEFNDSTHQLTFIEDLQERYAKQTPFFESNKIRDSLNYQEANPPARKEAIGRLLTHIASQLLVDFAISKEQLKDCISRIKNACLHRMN

Rrn7 [2] = molecular target: T1, Rrn7; test: cryo-EM structure; Pol I (1.5 uM) and Rrn3 (3 uM) mixed 5 h at 4°C, then 70-bp transcription scaffold (-50 to +20, 15-nt mismatch, 10-nt RNA) 1 h, then CF (1.5 uM); dialysed from 300 to 100 mM potassium acetate, 50 mM HEPES-NaOH pH 7.5, 5 mM magnesium acetate, 10 mM DTT; 38,589 particles, 4.4 Å; both purified
Rrn6 (yeast) = molecular target: T2, Rrn6 (yeast) (UniProt P32786); test: as above
T2 sequence: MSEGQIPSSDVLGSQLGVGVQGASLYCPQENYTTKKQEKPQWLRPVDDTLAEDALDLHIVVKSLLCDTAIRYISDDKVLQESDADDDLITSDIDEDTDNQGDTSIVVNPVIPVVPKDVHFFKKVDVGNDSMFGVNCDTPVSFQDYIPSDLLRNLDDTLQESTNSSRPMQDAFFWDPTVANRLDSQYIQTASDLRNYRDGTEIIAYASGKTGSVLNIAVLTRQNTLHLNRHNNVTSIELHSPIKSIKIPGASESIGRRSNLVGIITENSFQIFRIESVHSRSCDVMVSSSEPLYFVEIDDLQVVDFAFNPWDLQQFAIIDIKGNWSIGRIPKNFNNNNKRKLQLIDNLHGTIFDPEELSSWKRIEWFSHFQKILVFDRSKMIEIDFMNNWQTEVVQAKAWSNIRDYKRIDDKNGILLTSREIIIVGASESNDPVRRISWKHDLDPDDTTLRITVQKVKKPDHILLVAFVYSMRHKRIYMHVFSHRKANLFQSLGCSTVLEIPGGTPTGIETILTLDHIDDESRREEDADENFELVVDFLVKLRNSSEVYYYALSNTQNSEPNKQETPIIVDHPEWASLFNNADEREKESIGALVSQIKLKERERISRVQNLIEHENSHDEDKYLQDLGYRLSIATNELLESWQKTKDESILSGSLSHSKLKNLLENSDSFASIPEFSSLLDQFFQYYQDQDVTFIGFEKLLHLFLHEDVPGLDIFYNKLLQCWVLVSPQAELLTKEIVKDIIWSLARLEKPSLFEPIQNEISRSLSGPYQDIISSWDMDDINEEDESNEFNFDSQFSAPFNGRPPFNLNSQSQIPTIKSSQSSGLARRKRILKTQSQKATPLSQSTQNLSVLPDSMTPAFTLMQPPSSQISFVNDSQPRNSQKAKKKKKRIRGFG

B1: Rrn6 (protein, UniProt P32786 1-894)
chain: MSEGQIPSSDVLGSQLGVGVQGASLYCPQENYTTKKQEKPQWLRPVDDTLAEDALDLHIVVKSLLCDTAIRYISDDKVLQESDADDDLITSDIDEDTDNQGDTSIVVNPVIPVVPKDVHFFKKVDVGNDSMFGVNCDTPVSFQDYIPSDLLRNLDDTLQESTNSSRPMQDAFFWDPTVANRLDSQYIQTASDLRNYRDGTEIIAYASGKTGSVLNIAVLTRQNTLHLNRHNNVTSIELHSPIKSIKIPGASESIGRRSNLVGIITENSFQIFRIESVHSRSCDVMVSSSEPLYFVEIDDLQVVDFAFNPWDLQQFAIIDIKGNWSIGRIPKNFNNNNKRKLQLIDNLHGTIFDPEELSSWKRIEWFSHFQKILVFDRSKMIEIDFMNNWQTEVVQAKAWSNIRDYKRIDDKNGILLTSREIIIVGASESNDPVRRISWKHDLDPDDTTLRITVQKVKKPDHILLVAFVYSMRHKRIYMHVFSHRKANLFQSLGCSTVLEIPGGTPTGIETILTLDHIDDESRREEDADENFELVVDFLVKLRNSSEVYYYALSNTQNSEPNKQETPIIVDHPEWASLFNNADEREKESIGALVSQIKLKERERISRVQNLIEHENSHDEDKYLQDLGYRLSIATNELLESWQKTKDESILSGSLSHSKLKNLLENSDSFASIPEFSSLLDQFFQYYQDQDVTFIGFEKLLHLFLHEDVPGLDIFYNKLLQCWVLVSPQAELLTKEIVKDIIWSLARLEKPSLFEPIQNEISRSLSGPYQDIISSWDMDDINEEDESNEFNFDSQFSAPFNGRPPFNLNSQSQIPTIKSSQSSGLARRKRILKTQSQKATPLSQSTQNLSVLPDSMTPAFTLMQPPSSQISFVNDSQPRNSQKAKKKKKRIRGFG
In the case of B1, the binding (Rrn7 [1]) is reported as “binds”.

B2: Rrn11 (natural protein, yeast)
chain: MFEVPITLTNRKFAQRRKLKYQYINYISRRFDRISKKSTTTDSLPTPENSAAENNDEEEGQNSEAGTYRRSVLQQKKRRRERHWRSVVGEIYSTTESETDSQEEETEEGGEHDTGIDKEDSDEERKFWKKYEKPEKSFEIWRTVSSQNKQPINKQKMTYHNFKKIEKIPLRKMEIPLLHCTKENKLYFQSISRGLEPLKTSTSEVRNYRTRHIVTLTDLLHLNVSRHNWSLAYKIFATLIRIPGVQIKSLWGIGVEILDNLSNSSSGLDFLQWMCQIYSSKSRFVQNINYRSIVPPFQTGSRTHTAKFAITYLWSSLINCQKSMEPSSNIIDKPFDTENDLLQELIDKISEWVLTPPFMEDAEVWFIYASCHLLKADTLSRQFVNDNKNNDLIGLDRDIKINQVIKHIHYVRTFLKICLDKGGFAVPSRLIENQLKSFESRLYGEAQDIQERDVANVYDSIDNSSVENSFGDVYETNAEFLDTQLMDLSPEDNGLDEMHYSDEDSSE
notes: Rrn11, subunit of yeast Core Factor; Stood in the assay as a subunit of CF within the Pol I PIC; also called CF subunit Rrn11; source: E. coli BL21(DE3)Star pRARE, co-expressed as Core Factor, purified
With B2 the binding (Rrn7 [2]) was “binds” and the binding (Rrn6 (yeast)) was “binds”.
